These are yes or no findings as the source states them, for the method shown. Binding seen in cells or lysates may run through a third protein. Some results given as binding are weak or reduced against the parent protein; the word gives no strength.
B1: AP180 (protein, UniProt Q05140 1-915)
chain: MSGQTLTDRIAAAQYSVTGSAVARAVCKATTHEVMGPKKKHLDYLIQATNETNVNIPQMADTLFERATNSSWVVVFKALVTTHHLMVHGNERFIQYLASRNTLFNLSNFLDKSGSHGYDMSTFIRRYSRYLNEKAFSYRQMAFDFARVKKGADGVMRTMVPEKLLKSMPILQGQIDALLEFDVHPNELTNGVINAAFMLLFKDLIKLFACYNDGVINLLEKFFEMKKGQCKDALEIYKRFLTRMTRVSEFLKVADEVGIDKGDIPDLTQAPSSLMETLEQHLNTLEGKKPGNNEGSGAPSPLSKSSPATTVTSPNSTPAKTIDTSPPVDIFATASAAAPVSSAKPSSDLLDLQPDFSGARAGAAAPVPPPTGGATAWGDLLGEDSLAALSSVPSEAPISDPFAPEPSPPTTTTEPASASASATTAVTAATTEVDLFGDAFAASPGEAPAASEGATAPATPAPVAAALDACSGNDPFAPSEGSAEAAPELDLFAMKPPETSAPVVTPTASTAPPVPATAPSPAPTAVAATAATTTAAAAATTTATTSAAAATTAAAPPALDIFGDLFDSAPEVAAASKPDVAPSIDLFGTDAFSSPPRGASPVPESSLTADLLSGSGFHCAEDDRHVPLFFTAVDAFAAPSPASTASPAKAESSGVIDLFGDAFGSSASETQPAPQAVSSSSASADLLAGFGGSFMAPSTTPVTPAQNNLLQPNFEAAFGTTPSTSSSSSFDPSGDLLMPTMAPSGQPAPVSMVPPSPAMSASKGLGSDLDSSLASLVGNLGISGTTSKKGDLQWNAGEKKLTGGANWQPKVTPATWSAGVPPQGTVPPTSSVPPGAGAPSVGQPGAGYGMPPAGTGMTMMPQQPVMFAQPMMRPPFGAAAVPGTQLSPSPTPATQSPKKPPAKDPLADLNIKDFL
B2: Doublecortin (DCX) (protein, UniProt Q9ESI7 1-365)
chain: MELDFGHFDERDKASRNMRGSRMNGLPSPTHSAHCSFYRTRTLQALSNEKKAKKVRFYRNGDRYFKGIVYAVSSDRFRSFDALLADLTRSLSDNINLLQGVRYIYTIDGSRKIGSMDELEEGESYVCSSDNFFKKVEYTKNVNPNWSVNVKTSANMKAPQSLASSNSAQARENKDFVRPKLVTIIRSGVKPRKAVRVLLNKKTAHSFEQVLTDITEAIKLETGVVKKLYTLDGKQVTCLHDFFGDDDVFIACGPEKFRYAQDDFSLDENECRVMKGNPSATAGPKASPTPQKTSAKSPGPMRRSKSPADSGNDQDANGTSSSQLSTPKSKQSPISTPTSPGSLRKHKDLYLPLSLDDSDSLGDSM

Sequences of proteins named here, by UniProt entry; tags and fusion partners are left off. Residues count along the entry.
UniProt Q28021, residues 6-553: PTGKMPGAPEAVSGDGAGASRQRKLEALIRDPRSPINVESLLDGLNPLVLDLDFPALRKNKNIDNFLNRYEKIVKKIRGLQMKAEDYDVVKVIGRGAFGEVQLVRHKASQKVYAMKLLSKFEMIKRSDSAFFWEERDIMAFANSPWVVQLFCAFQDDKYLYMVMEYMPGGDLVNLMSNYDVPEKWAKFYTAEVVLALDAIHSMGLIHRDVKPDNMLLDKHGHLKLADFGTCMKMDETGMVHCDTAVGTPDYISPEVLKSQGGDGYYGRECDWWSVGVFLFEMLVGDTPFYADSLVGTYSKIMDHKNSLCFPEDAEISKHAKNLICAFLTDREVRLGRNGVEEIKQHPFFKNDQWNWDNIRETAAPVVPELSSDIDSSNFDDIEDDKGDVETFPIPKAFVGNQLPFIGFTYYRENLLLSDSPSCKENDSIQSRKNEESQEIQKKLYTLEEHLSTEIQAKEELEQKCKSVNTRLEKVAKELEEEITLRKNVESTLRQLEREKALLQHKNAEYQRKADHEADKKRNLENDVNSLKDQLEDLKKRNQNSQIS
UniProt Q16512, residues 581-942: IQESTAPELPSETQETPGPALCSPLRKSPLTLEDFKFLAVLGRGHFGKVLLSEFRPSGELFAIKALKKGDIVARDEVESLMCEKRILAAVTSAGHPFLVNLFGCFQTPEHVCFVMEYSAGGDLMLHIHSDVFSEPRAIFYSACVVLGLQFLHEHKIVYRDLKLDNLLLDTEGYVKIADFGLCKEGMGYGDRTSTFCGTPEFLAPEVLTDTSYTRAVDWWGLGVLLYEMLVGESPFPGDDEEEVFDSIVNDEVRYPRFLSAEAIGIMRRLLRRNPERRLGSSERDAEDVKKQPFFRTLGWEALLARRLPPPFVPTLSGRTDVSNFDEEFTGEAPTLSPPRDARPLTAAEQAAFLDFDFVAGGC

Tests used:
[1] = target: GST-Rho-kinase-cat (active catalytic fragment of Rho-kinase/ROCK/ROK, 6-553 amino acids) (UniProt Q28021); experiment: pull-down; same affinity columns (GST-fused kinase fragment on glutathione-sepharose, rat brain fraction loaded); 50 mM and 1 M NaCl eluates analysed by immunoblot with anti-CRMP-2, anti-AP180 and anti-DCX Abs; only the target purified
[2] = target: GST-PKN-cat (581-942 amino acids) (UniProt Q16512); experiment: as above
[3] = target: GST-Rho-kinase-cat (active catalytic fragment of Rho-kinase/ROCK/ROK, 6-553 amino acids) (UniProt Q28021); experiment: pull-down; Rho-kinase-cat affinity column in the presence of ATP; data not shown; only the target purified

| Binder | binding [1] | binding [2] | binding [3] |
| --- | --- | --- | --- |
| B1 | binds | binds weakly | binds |
| B2 | binds | binds | – |

Reference: PMC2806833
